Results of single-concentration screens

Measurements from “University of Dundee, Small-Polar-MMV Screening Library” (2021), ChEMBL document CHEMBL3988442.

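Whole-cell growth test on Mycobacterium tuberculosis, read after 3 days in glucose-containing 7H9 medium; the read-out is not stated. Tested at 50 µM. Direction is inferred from retests: higher values go with more growth inhibition. Of about 69,000 compounds tested this way, about 760 (1.1%) reached 50% or more in at least one test.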

Results are given as percent effect. The record does not define 0% and 100%; most values in the screen are far below 50% and negative numbers occur (in some assays of this library far below -100). Compounds were drawn at random from those tested, without regard to their results. Two or more numbers in one place are separate tests of the same structure; such repeats can differ widely.

| compound | effect |
|---|---|
| `COc1ccc(CN2CC[C@@]3(C2)[C@H](O)CN(C)S3(=O)=O)cc1F` | 7.945 |
| `OC1CCN(Cc2c(-c3ccco3)[nH]c3ncccc23)CC1` | -3.344 |
| `CCN1CCC12CCN(C(=O)c1ccsc1)C2.O=C(O)C(F)(F)F` (configuration not stated) | -12.58 and -1.988 |
| `Cn1ncc(C(=O)N2CCN(S(C)(=O)=O)CC2)c1Cl` | -33.46 |
| `c1ccc(-c2nc(CN3CCCC(Cn4cncn4)C3)co2)cc1` (configuration not stated) | -41.72 |
| `CCOCC(O)CN1CCN(C(=O)c2cc(Cl)ccc2F)CC1` (configuration not stated) | -1.454 |
| `Cc1ccc(Cl)c(CN2CCC(c3nccn3C(C)C)CC2)c1F` | 20.33 |
| `CNc1snc(C)c1C(=O)N1CCCC(n2cccn2)C1` (configuration not stated) | -3.22 |
| `CCC[C@H]1CN(Cc2ccc(N(C)C)nc2)C[C@@H]1NC(=O)CO` | -0.5495 and 8.296 |
| `c1ccc(OCCNc2ncnc3sc4c(c23)CCNC4)cc1` | 27.85 |
| `[H][C@@]12CCN(C)[C@]1([H])CN(C(=O)c1ccc3sc4c(c3c1)CCNC4=O)C2` | 0.2796 |
| `CCCn1ccnc1CN1C[C@@H](CN2CCCCC2)[C@@H](CO)C1` | -23.17 |
| `Cc1cc(CN(C)C2CCCN(Cc3noc(C4CC4)n3)C2)no1` (configuration not stated) | -36.41 |
| `CC(C)CCN1CC2(CCCN(C(=O)NCc3cccs3)C2)CCC1=O` (configuration not stated) | -12.79 |
| `O=C(O)C(F)(F)F.O=C(O)C(F)(F)F.c1cncc(CN2CCc3c(nnn3CC3CC3)C2COCC2CC2)c1` (configuration not stated) | 2.38 |
| `COc1ccccc1N1CCC(CNCc2ccc(C#N)cc2)C1` (configuration not stated) | 20.95 and 43.48 |
| `Cc1ccccc1C(=O)N1CCOCC1CN(C)C.O=CO` (configuration not stated) | 0.6501 |
| `CC(Cn1ccnc1)NCc1cc(Br)c2c(c1)OCO2.Cl` (configuration not stated) | -15.95 |
| `CC(NCC(=O)NCC(=O)Nc1ccc(F)cc1)c1cccs1` (configuration not stated) | -10.51 |
| `Cc1cc(NC(=O)C(C)Cn2cncn2)no1` (configuration not stated) | -0.2923 and -16.21 |
| `CC(C)NC(=O)c1csc(NC2CC2)n1` | 19.86 |
| `CCc1sc(C(=O)Nc2cnn(CC(=O)NC3CC3)c2)cc1C` | 2.734 and -2.287 |
| `CCN(C)c1ncnc2c1CCN(C(=O)N1CCOCC1)CC2` | -31.83 and -8.578 |
| `N#Cc1ccc(NCCS(=O)(=O)N2CCc3ccccc32)nc1` | -20.55 |
| `Cc1c(NCc2cccnc2)cccc1C(=O)N1CCC(N(C)C)C1` (configuration not stated) | -28.45 |
| `CCc1nc(C2CCCN2C(=O)c2ccc3c(c2)nc(C)n3C)no1` (configuration not stated) | -14.23 |
| `CC(=O)N1CCc2nc(N(C)C)nc(NCCc3ccccc3)c2CC1` | -5.393 |
| `CC(Cn1cc(Br)cn1)C(=O)Nc1ccn(C)n1` (configuration not stated) | -51.29 |
| `O=C(c1ccoc1)N1CCn2nc(CN3CCSCC3)cc2C1` | -107.8 |
| `CN[C@@H]1CCC[C@@H](Oc2ccccc2Oc2ccc(C)cc2)[C@@H]1O` | 21.57 |
| `CCOCC1CN(CCOc2ccc(Cl)cc2)Cc2c1cnn2C.O=C(O)C(F)(F)F.O=C(O)C(F)(F)F` (configuration not stated) | 16.41 and 28.94 |
| `CCOc1ncccc1NC(=O)N1CCc2ccccc2C1` | 11.1 |
| `CC1CCCN(c2ccccc2OCC(=O)N2CCOCC2)C1` (configuration not stated) | -5.338 |
| `c1cncc(CN2CCc3c(CNc4nccs4)n[nH]c3C2)c1` | -0.1297 |
| `Cc1cnn(C2CCCN(C(=O)c3cccc(Cn4ccnc4)c3)C2)c1` (configuration not stated) | -13.38 |
| `CCOCC1c2c(ncn2C(C)C)CCN1C(=O)C1CC1` (configuration not stated) | -6.557 and -6.689 |
| `O=C(O)C(F)(F)F.O=C(O)C(F)(F)F.O=C(O)C(F)(F)F.[H][C@@]12CCC(=O)N(Cc3cccc(C)n3)[C@]1([H])CCN2Cc1cccnc1` | 12.96 |
| `COc1cccc(-c2n[nH]cc2-c2nc(CC3CCN(C)CC3)no2)c1` | 22.07 and 21.35 |
| `Cn1ccnc1-c1noc(NCc2ccc(Br)cc2)n1` | -23.74 |
| `Cn1ccnc1CC1CCCN(Cc2noc(C3CC3)n2)C1` (configuration not stated) | 3.046 |
| `O=C(c1cccc(F)c1)N1C[C@@H](CN2CCCCC2)[C@@H](CO)C1` | -19.9 |
| `CC(=O)N1CCN(C(=O)c2cnn(-c3ccccc3Cl)c2)CC1` | 0.02417 |
| `Cc1ccc2c(n1)N(CC1CC1)CCN(C(=O)c1ccncc1F)C2.O=C(O)C(F)(F)F.O=C(O)C(F)(F)F` | 12.36 |
| `Cc1ccsc1CN(Cc1ccccn1)CC(O)CO` (configuration not stated) | 21.71 |
| `CC(C)c1ccc(OCC(=O)N(C)C)cc1` | 16.6 |
| `Cc1ccc2oc(CNC(C)c3nnc4n3CCCC4)cc2c1` (configuration not stated) | -21.13 |
| `COCCN1CC2(CCC1=O)CCN(Cc1cc(F)ccc1Cl)CC2` | -34.17 |
| `O=C(NCC(O)CN1CCc2ccccc2C1)Nc1cccnc1` (configuration not stated) | 16.26 |
| `CN(Cc1cc(C(C)(C)C)n[nH]1)Cc1c[nH]nc1-c1ccc(F)cc1` | 15.16 |
| `[H][C@]12CN(CCc3cccc(F)c3)CC[C@@]1(O)CCN(S(=O)(=O)N(C)C)C2` | -29.48 |
| `O=C1CC(NS(=O)(=O)c2ccc(F)c(Cl)c2)CN1` (configuration not stated) | 24.51 |
| `Cn1cnnc1C1CCCN(C(=O)c2ccc3c(c2)OCCCO3)C1` (configuration not stated) | 9.567 |
| `CCN(C)C1COC2(CCN(C(=O)c3ccc4[nH]ccc4c3)CC2)C1` (configuration not stated) | 9.728 |
| `Cc1cccc(C)c1OC1CN(Cc2cnc(-c3ccco3)nc2)C1` | 8.03 |
| `COc1ccc(CC(=O)N2CCCC(n3cc(C)cn3)C2)c(OC)c1` (configuration not stated) | -9.234 |
| `CCCC(=O)n1ccn(S(=O)(=O)c2ccc(C)cc2)c1=O` | 25.61 |

Once more, the final 4:

compound	effect
CCN(C)C1COC2(CCN(C(=O)c3ccc4[nH]ccc4c3)CC2)C1 (configuration not stated)	9.728
Cc1cccc(C)c1OC1CN(Cc2cnc(-c3ccco3)nc2)C1	8.03
COc1ccc(CC(=O)N2CCCC(n3cc(C)cn3)C2)c(OC)c1 (configuration not stated)	-9.234
CCCC(=O)n1ccn(S(=O)(=O)c2ccc(C)cc2)c1=O	25.61